For at least one compound, name, drawing or mass did not settle the structure.
What was measured:
Format in all cases: cell-based
P300 = P300 (Homo sapiens (Human), UniProt Q09472); assay: Immunoblot of P300 protein in LNCaP cells after compound treatment; conditions: indicated concentrations, 8 hours
Method: (§1) Experiments were performed to see if heterobifunctional compounds as described herein could degrade target proteins. Specific exemplary heterobifunctional compounds were characterized in LNCaP and Calu-1 cells. LNCaP cells that express P300/CBP proteins were treated with heterobifunctional compounds disclosed herein (D-2, D-13, or D-7) at indicated concentrations for 8 hours. Cells were collected, lysed and subject to immunoblotting using an antibody specific to P300 or CBP proteins. Vinculin was included as the loading control. DMSO treatment was used as the negative control. […] In addition, LNCaP cells were treated with 500 nM of D-2, or D-13 for indicated period of time. Subsequently, changes in P300 and CBP protein levels were measured by immunoblotting.

Chains of the proteins cited; added tags and fusions are not shown.
UniProt Q09472, whole entry: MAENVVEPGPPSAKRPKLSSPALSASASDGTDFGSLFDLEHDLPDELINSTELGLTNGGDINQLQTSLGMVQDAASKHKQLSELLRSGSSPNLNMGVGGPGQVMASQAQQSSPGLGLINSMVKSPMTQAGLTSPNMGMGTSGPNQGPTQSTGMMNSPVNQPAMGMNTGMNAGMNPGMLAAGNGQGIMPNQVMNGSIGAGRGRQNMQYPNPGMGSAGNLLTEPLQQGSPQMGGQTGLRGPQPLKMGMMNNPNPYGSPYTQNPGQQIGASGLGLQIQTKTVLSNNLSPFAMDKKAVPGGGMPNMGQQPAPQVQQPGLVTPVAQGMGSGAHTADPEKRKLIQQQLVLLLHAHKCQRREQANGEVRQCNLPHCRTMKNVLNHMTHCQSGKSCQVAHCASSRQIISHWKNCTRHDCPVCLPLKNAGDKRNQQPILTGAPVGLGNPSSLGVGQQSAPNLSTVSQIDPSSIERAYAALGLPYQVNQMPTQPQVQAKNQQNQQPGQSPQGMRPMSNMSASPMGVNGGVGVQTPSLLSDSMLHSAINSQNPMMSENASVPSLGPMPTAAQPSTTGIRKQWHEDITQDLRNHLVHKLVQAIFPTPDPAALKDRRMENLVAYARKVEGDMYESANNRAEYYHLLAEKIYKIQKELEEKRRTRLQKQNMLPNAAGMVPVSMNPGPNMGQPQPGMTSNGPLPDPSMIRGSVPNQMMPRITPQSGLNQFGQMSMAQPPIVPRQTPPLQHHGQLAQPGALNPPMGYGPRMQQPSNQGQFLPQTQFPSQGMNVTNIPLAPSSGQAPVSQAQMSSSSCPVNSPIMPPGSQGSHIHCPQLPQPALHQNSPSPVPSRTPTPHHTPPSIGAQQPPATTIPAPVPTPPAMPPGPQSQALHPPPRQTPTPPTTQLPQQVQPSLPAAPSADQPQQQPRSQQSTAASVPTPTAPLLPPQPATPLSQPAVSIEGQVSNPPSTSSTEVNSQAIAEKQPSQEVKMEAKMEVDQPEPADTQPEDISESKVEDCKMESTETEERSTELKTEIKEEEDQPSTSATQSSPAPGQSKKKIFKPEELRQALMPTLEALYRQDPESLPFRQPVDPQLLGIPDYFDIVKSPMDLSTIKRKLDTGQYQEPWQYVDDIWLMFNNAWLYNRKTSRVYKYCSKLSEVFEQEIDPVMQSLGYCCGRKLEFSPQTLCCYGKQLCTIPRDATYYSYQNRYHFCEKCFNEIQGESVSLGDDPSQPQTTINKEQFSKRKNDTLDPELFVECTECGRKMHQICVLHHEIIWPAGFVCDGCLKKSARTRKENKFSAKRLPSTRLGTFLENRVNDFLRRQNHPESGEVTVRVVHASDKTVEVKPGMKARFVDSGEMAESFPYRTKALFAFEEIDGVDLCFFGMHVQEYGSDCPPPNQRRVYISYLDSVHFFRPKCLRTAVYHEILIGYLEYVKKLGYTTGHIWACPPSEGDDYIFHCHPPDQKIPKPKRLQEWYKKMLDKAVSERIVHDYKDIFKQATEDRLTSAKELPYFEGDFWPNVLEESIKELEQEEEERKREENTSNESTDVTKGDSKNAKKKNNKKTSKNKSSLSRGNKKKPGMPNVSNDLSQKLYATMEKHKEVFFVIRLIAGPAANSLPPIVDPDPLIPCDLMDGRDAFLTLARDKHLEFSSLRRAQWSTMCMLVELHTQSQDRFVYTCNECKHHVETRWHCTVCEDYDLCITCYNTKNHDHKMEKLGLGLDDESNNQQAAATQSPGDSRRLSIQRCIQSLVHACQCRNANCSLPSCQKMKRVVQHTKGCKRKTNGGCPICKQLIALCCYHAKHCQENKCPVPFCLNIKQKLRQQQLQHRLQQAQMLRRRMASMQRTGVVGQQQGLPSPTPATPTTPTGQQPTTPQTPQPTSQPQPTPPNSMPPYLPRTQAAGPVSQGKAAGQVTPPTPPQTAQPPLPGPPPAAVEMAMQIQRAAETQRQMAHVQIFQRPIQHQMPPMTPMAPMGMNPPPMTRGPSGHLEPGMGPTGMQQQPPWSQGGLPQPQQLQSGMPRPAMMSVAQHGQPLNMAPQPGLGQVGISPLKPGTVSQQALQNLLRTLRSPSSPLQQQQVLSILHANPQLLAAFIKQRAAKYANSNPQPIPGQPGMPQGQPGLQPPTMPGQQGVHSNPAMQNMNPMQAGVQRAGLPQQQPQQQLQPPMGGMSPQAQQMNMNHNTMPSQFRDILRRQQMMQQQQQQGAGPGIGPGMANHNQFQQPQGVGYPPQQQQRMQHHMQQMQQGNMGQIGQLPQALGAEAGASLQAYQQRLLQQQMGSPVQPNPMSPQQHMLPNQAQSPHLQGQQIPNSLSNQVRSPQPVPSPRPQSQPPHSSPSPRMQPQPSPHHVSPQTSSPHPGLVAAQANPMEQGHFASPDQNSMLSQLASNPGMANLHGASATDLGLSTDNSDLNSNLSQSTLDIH
UniProt Q92793, whole entry: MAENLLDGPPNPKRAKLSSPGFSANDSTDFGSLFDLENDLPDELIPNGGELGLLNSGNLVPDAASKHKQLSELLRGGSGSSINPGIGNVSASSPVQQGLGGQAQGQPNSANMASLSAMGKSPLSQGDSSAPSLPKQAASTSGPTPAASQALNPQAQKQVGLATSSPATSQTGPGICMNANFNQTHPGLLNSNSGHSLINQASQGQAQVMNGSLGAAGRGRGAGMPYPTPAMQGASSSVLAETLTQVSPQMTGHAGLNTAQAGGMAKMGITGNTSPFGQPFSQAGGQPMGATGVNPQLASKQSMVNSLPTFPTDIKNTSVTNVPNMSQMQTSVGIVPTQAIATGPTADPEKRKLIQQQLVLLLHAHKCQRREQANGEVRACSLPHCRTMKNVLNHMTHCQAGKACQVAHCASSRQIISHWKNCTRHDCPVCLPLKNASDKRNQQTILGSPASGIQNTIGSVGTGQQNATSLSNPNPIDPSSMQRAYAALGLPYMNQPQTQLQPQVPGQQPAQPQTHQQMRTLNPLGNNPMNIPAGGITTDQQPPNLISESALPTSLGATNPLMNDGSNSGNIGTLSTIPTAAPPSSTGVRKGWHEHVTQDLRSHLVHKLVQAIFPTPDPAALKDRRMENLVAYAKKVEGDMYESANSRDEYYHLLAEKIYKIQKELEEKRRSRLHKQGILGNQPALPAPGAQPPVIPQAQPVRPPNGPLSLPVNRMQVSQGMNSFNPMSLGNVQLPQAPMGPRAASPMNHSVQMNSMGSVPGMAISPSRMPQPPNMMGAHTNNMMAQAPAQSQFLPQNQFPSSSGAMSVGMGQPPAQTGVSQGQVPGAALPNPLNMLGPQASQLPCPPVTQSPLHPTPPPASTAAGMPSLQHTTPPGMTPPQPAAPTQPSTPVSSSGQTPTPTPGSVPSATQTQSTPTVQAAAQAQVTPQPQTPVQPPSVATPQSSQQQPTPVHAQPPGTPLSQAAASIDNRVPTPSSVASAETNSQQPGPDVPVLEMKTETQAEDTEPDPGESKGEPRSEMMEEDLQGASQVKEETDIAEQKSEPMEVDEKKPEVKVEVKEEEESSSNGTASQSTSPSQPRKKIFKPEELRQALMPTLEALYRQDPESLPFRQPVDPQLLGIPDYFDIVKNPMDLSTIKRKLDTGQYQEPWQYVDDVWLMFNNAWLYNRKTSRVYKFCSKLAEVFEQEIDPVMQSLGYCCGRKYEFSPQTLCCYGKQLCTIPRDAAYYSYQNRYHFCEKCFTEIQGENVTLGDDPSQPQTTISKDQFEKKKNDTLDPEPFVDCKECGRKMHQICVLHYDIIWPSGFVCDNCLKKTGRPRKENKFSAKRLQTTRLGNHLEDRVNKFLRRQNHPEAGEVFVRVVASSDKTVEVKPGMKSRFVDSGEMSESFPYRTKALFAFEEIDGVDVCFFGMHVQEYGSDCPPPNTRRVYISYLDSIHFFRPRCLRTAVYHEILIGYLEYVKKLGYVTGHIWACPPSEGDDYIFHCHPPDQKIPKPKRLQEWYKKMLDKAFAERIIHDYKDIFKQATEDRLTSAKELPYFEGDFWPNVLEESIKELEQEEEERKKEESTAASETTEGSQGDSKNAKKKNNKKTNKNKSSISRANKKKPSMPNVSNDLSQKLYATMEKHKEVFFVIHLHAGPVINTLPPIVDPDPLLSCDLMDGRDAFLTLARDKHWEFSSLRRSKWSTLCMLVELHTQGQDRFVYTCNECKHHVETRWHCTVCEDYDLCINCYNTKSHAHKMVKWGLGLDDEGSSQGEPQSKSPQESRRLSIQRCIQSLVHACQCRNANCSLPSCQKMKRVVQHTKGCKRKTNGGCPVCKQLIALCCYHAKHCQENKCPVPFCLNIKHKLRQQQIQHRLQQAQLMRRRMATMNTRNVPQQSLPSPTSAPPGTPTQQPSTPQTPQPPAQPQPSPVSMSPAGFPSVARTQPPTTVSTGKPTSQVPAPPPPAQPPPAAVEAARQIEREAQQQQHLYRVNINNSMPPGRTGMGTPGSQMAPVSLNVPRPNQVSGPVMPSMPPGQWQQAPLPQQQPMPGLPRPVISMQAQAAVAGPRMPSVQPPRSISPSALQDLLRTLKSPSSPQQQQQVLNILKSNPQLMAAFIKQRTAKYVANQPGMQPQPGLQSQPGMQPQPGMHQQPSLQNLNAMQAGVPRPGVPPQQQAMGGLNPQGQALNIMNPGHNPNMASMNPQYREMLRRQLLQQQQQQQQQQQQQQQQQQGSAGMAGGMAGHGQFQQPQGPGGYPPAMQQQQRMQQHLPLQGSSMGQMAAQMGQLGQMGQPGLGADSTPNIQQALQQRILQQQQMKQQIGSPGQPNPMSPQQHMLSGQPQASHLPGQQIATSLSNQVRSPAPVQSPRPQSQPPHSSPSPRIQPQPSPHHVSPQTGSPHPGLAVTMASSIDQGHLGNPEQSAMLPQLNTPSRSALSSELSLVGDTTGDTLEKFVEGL

CBP = CBP (Homo sapiens (Human), UniProt Q92793); assay: Immunoblot of CBP protein in LNCaP cells after compound treatment; conditions: indicated concentrations, 8 hours
Method: as §1

LNCaP cells = assay: LNCaP cell viability (CellTiter-Glo); conditions: three days
Method: LNCaP cells seeded in 96-well plates were treated with 10 μM GNE-781 or selected heterobifunctional compounds, following a 12-point 3-fold serial dilution. Three days after treatment, cell viability was determined using the CellTiter-Glo Kit (Promega). Cell viability was normalized to the mean values of 3 replicates of untreated cells. Dose-dependent response was analyzed following the least-squares non-linear regression method using the GraphPad Prism software.

Compound: CC(=O)Nc1cc(NCCOCCNC(=O)CN2CCC(n3nc(N4CCCc5cc(-c6cnn(C)c6)c(C(F)F)cc54)c4c3CCN(C(C)=O)C4)CC2)ccc1C(=O)Nc1nc(C)c([N+](=O)[O-])s1 [D-7, 2-Acetamido-4-((2-(2-(2-(4-(5-acetyl-3-(7-(difluoromethyl)-6-(1-methyl-1H-pyrazol-4-yl)-3,4-dihydroquinolin-1 (2H)-yl)-4,5,6,7-tetrahydro-1H-pyrazolo[4,3-c]pyridin-1-yl)piperidin-1-yl)acetamido)ethoxy)ethyl)amino)-N-(4-methyl-5-nitrothiazol-2-yl)benzamide]
- P300 protein levels (P300): significantly decreased in a concentration-dependent manner
- CBP protein levels (CBP): significantly decreased in a concentration-dependent manner
- viability of LNCaP cells (LNCaP cells; 10 μM top, 12-point 3-fold serial dilution): dose-dependently suppressed viability of LNCaP cells
- inhibitory effects on the growth of LNCaP cells compared to GNE-781 (LNCaP cells): more potent inhibitory effects

— patent US20240066136A1, “MODIFIED PROTEINS AND PROTEIN DEGRADERS” (Cullgen (Shanghai), Inc., priority 2020, published 2024)
